Where “and” joins values, the source holds several entries; their conditions need not be identical. Equal values may be shown once. Out of some 300,000 compounds screened, about 3,700 (1.2%) were called active. Inconclusive results, whose numbers are uncertain, are shown with a selection of clear calls. Calls come from the whole dose curve; tested in HEK293 cells. Potencies beside an inconclusive call are fits to weak or partial responses and may not hold up.
assay: qHTS for Inhibitors of binding or entry into cells for Lassa Virus; details: Lassa virus pseudotype entry inhibition, cell reporter; series mostly up to 37.9 µM; note: nearly all actives have a fitted effect of over 50% in size
Potency is the fitted concentration of half-maximal effect.

Compound	Potency
COc1ccc(CCNC(=O)CCc2c(C)nc3c(c(C)nn3-c3ccc(C)c(C)c3)c2C)cc1OC	inconclusive: 14.1 µM [activator, partial curve, poor fit]
O=C(COC(=O)/C=C/c1ccco1)Nc1ccc(F)cc1Cl	inactive
COc1ccccc1CNC(=O)c1cc2cc3ccc(Cl)cc3nc2o1	inconclusive: 22.4 µM [inhibitor, single point]
O=C(COC(=O)c1c(F)cccc1F)c1ccc[nH]1	inconclusive: 8.91 µM [activator, partial curve, poor fit]
COCCCN(C(=O)c1ccco1)c1nc(-c2ccc(OC)cc2)cs1	inconclusive: 14.1 µM [inhibitor, partial curve, poor fit]
COC(=O)N/N=C/c1cn(CCOc2ccccc2)c2ccccc12	inconclusive: 8.91 µM [inhibitor, partial curve]
CCc1ccccc1N1CC(c2nc3ccccc3n2CCCOc2ccc(Cl)cc2)CC1=O (stereo not drawn)	inconclusive: 11.2 µM [inhibitor, partial curve]
Cc1ccc(S(=O)(=O)N[C@@H](Cc2ccccc2)C(=O)N2CCC(C(=O)N[C@@H](CCC(N)=O)C(=O)O)CC2)cc1	inconclusive: 3.16 µM [activator, full curve]
Cc1ccc2nc3c(c(Nc4ccccc4)c2c1)CCC3	inconclusive: 11.2 µM [inhibitor, partial curve, poor fit]
O=C(CN1CCOCC1)N1CCN(c2nnc(-c3ccccc3)c3ccccc23)CC1	inactive
CSc1nnc([C@@H]2CCCN2C(=O)OC(C)(C)C)o1	inconclusive: 1.26 µM [inhibitor, single point]
COc1cccc(NC(=O)CN(C)C(=O)C2CCN(C(=O)c3ccccc3C)CC2)c1	inconclusive: 5.62 µM [inhibitor, single point]
COc1ccc(C(=O)/C=C/C(=O)N(CC(=O)NC2CCCCC2)Cc2ccc(F)cc2)c(O)c1	inconclusive: 28.2 µM [inhibitor, single point]
O=C(CC1SC(=Nc2cccc3ccccc23)N(Cc2ccccn2)C1=O)Nc1ccccc1Br (stereo not drawn)	inconclusive: 16.4 µM [inhibitor, partial curve, poor fit] and inconclusive: 8.91 µM [inhibitor, partial curve, poor fit]
S=C(NCc1ccco1)Nc1ccc(Oc2ccc(Cl)cc2)cc1	inactive
Fc1ccccc1-c1nc(NCCCN2CCOCC2)c2ccccc2n1	inconclusive: 29.1 µM [inhibitor, single point]
O=C(Nc1cc(Cl)ccc1-n1cncn1)c1ccc(Br)o1	inactive
Cc1nn(-c2ccccc2)c(C)c1NC(=O)COc1ccc(F)cc1Cl	inactive
OCCc1ccc(O)c(-n2nc3ccccc3n2)c1	inactive
CCCSc1nn2c(=O)c3ccccc3nc2s1	inconclusive: 0.398 µM [activator, single point]
CN(C)CCC(=O)N1C/C(=C/c2ccccc2)C(=O)/C(=C\c2ccccc2)C1	inconclusive: 0.501 µM [inhibitor, partial curve, poor fit]
CCOC(=O)N1CCc2c(sc3c2c(=O)n(-c2ccccc2)c(=O)n3CC(=O)Nc2ccc(OC)cc2OC)C1	inconclusive: 35.5 µM [activator, single point]
Oc1cc2c(cc1O)C(c1ccccc1)CNCC2 (stereo not drawn)	inconclusive: 0.184 µM [activator, full curve, poor fit]

Compound	Potency
COCCNC(=O)c1n[nH]c2ccccc12	inactive
CCOc1ccc(C(=O)N2CCC(c3nnc(-c4ccccc4OC)o3)CC2)cc1	inactive
N#Cc1ccccc1CN1C(=O)c2ccccc2Sc2ccc(C(=O)OCc3ccco3)cc21	inactive
CCCS(=O)(=O)c1cn2cccc(N)c2c1S(=O)(=O)CCC	inconclusive: 15.8 µM [activator, single point]
Cc1cc(C)nc(NS(=O)(=O)c2ccc(NC(=O)c3ccc4c(c3)OCO4)cc2)n1	inactive
CCOC(=O)c1c(CNCCN(CC)CC)n(C)c2cc(Br)c(OC)cc12	inconclusive: 35.5 µM [inhibitor, single point]
CCNC(=O)CC1C(=O)N(c2ccc(F)cc2)C(=O)N1CCOC (stereo not drawn)	inactive
CC1CN(S(=O)(=O)c2cccc(-c3csc(-c4ccccc4)n3)c2)CC(C)O1 (stereo not drawn)	inconclusive: 12.6 µM [inhibitor, partial curve]
CCOC(CNC(=O)c1ccc2nc(N3CCC(C)CC3)sc2c1)OCC	inactive
CC(=O)c1cc(C(=O)Nc2ccc(C(=O)O)cc2)oc1C	inactive
COc1cc2c(=O)n(Cc3ccccc3)c(=O)n(CC(=O)NCCc3ccccc3)c2cc1OC	inconclusive: 8.91 µM [inhibitor, partial curve, poor fit]
COc1cc2c(cc1NC(=O)C(C)N1CCN(S(=O)(=O)c3ccccc3[N+](=O)[O-])CC1)oc1ccccc12 (stereo not drawn)	inactive
C=CCOc1nc2c(c(=O)n(C)c(=O)n2C)n1Cc1ccccc1	inactive
Cn1c(CCNC(=O)c2ccco2)nc2cc(NC(=O)c3ccccc3)ccc21	inconclusive: 35.5 µM [inhibitor, single point]
CC(C)C1C(=O)N(Cc2cn(CC3CCCCC3)nn2)CCS(=O)(=O)N1Cc1ccc(-c2ccc(Cl)cc2)cc1 (stereo not drawn)	inconclusive: 0.001 µM [inhibitor, full curve, poor fit]
CCc1ccccc1-n1c(N)c(C(=O)OC)c2nc3ccccc3nc21	inactive
Cc1cc(-c2ccc(C)c(S(=O)(=O)N3CCOc4ccc(Cl)cc43)c2)on1	inconclusive: 35.5 µM [inhibitor, single point]
CCCC1CCC(=NNC(=S)NCCc2ccccc2)CC1 (stereo not drawn)	active: 10 µM
CCOC(=O)c1cnc2c(Cl)cc(Cl)cc2c1Nc1ccccc1OC	inactive
Cc1nnc(NC(=O)CSCc2c(C)noc2C)s1	inconclusive: 20 µM [activator, partial curve, poor fit]
Cc1cc(C)nc(SCc2nnc(SCC(=O)Nc3nc(-c4ccccc4)cs3)n2-c2ccccc2)n1	inconclusive: 2.91 µM [inhibitor, partial curve, poor fit]
Cc1ccc(/C=c2\sc3nc(-c4cccs4)nn3c2=O)o1	inactive
COc1ccc(CC(=O)NNc2ncnc3c2cnn3-c2ccccc2)cc1	active: 5.17 µM

Shown in markdown: part of the list above.

| Compound | Potency |
| --- | --- |
| COCCCN(C(=O)c1ccco1)c1nc(-c2ccc(OC)cc2)cs1 | inconclusive: 14.1 µM [inhibitor, partial curve, poor fit] |
| Cc1ccc(S(=O)(=O)N[C@@H](Cc2ccccc2)C(=O)N2CCC(C(=O)N[C@@H](CCC(N)=O)C(=O)O)CC2)cc1 | inconclusive: 3.16 µM [activator, full curve] |
| Cc1ccc2nc3c(c(Nc4ccccc4)c2c1)CCC3 | inconclusive: 11.2 µM [inhibitor, partial curve, poor fit] |
| COc1cccc(NC(=O)CN(C)C(=O)C2CCN(C(=O)c3ccccc3C)CC2)c1 | inconclusive: 5.62 µM [inhibitor, single point] |
| O=C(CC1SC(=Nc2cccc3ccccc23)N(Cc2ccccn2)C1=O)Nc1ccccc1Br (stereo not drawn) | inconclusive: 16.4 µM [inhibitor, partial curve, poor fit] and inconclusive: 8.91 µM [inhibitor, partial curve, poor fit] |
| O=C(Nc1cc(Cl)ccc1-n1cncn1)c1ccc(Br)o1 | inactive |
| CCCSc1nn2c(=O)c3ccccc3nc2s1 | inconclusive: 0.398 µM [activator, single point] |
| CN(C)CCC(=O)N1C/C(=C/c2ccccc2)C(=O)/C(=C\c2ccccc2)C1 | inconclusive: 0.501 µM [inhibitor, partial curve, poor fit] |
| CCOC(=O)N1CCc2c(sc3c2c(=O)n(-c2ccccc2)c(=O)n3CC(=O)Nc2ccc(OC)cc2OC)C1 | inconclusive: 35.5 µM [activator, single point] |
| Oc1cc2c(cc1O)C(c1ccccc1)CNCC2 (stereo not drawn) | inconclusive: 0.184 µM [activator, full curve, poor fit] |
| CCOc1ccc(C(=O)N2CCC(c3nnc(-c4ccccc4OC)o3)CC2)cc1 | inactive |
| CCCS(=O)(=O)c1cn2cccc(N)c2c1S(=O)(=O)CCC | inconclusive: 15.8 µM [activator, single point] |
| Cc1cc(C)nc(NS(=O)(=O)c2ccc(NC(=O)c3ccc4c(c3)OCO4)cc2)n1 | inactive |
| CCOC(=O)c1c(CNCCN(CC)CC)n(C)c2cc(Br)c(OC)cc12 | inconclusive: 35.5 µM [inhibitor, single point] |
| CC(C)C1C(=O)N(Cc2cn(CC3CCCCC3)nn2)CCS(=O)(=O)N1Cc1ccc(-c2ccc(Cl)cc2)cc1 (stereo not drawn) | inconclusive: 0.001 µM [inhibitor, full curve, poor fit] |
| CCOC(=O)c1cnc2c(Cl)cc(Cl)cc2c1Nc1ccccc1OC | inactive |

More structures

Compound	Potency
CCOc1ccc(-n2nc3ccc(NC(=O)Cc4ccccc4)cc3n2)cc1	inactive
CC(C)(C)c1ccc(OCC(=O)NCCN2CCCC2)cc1	inconclusive: 29.1 µM [inhibitor, partial curve, poor fit]
COc1cc(CCNC2=CC(=O)c3ncccc3C2=O)ccc1O	inconclusive: 14.1 µM [inhibitor, single point]
CC(C)(C)OC(=O)N1CCC(c2c(C(=O)N3CCN(C(=O)c4ccco4)CC3)cnn2-c2ccc(F)cc2F)CC1	inactive
Cc1ccc(-c2cnn(-c3cccc([N+](=O)[O-])c3)c2N)cc1	inactive
COC(=O)CCn1nnc(-c2ccc(C(C)C)cc2)n1	inconclusive: 1.16 µM [inhibitor, full curve]
Cc1nn(Cc2ccccc2)c(C)c1NC(=O)CCC(=O)O	inconclusive: 11.2 µM [activator, partial curve, poor fit]
Cc1ccccc1CS(=O)(=O)c1ccc(C(=O)N2CCC(C)CC2)cc1[N+](=O)[O-]	inactive
CN(C)CCNc1nc(-c2ccccc2)c2c(c1C#N)CC(C)(C)OC2	inconclusive: 35.5 µM [inhibitor, single point]
CC(C)(C)c1ccc(C2CC2C(=O)N/N=C\c2cc3ccccc3nc2Cl)cc1 (stereo not drawn)	inconclusive: 1.03 µM [inhibitor, full curve, poor fit]
CCOC(=O)N1CCc2c(sc(N)c2C#N)C1	inactive
O=C(NCC(c1ccco1)N1CCCCC1)c1ccc(OCc2ccccc2)cc1 (stereo not drawn)	inactive
Cc1sc2nc(SCC(=O)N3CCN(CCO)CC3)n(-c3ccccc3)c(=O)c2c1C	inconclusive: 0.146 µM [inhibitor, full curve, poor fit]
N#Cc1c(/N=C/c2cccs2)sc2c1CCCCC2	inconclusive: 29.1 µM [inhibitor, single point]
CCOC(=O)C(CC)(CC)/C(C)=N/NC(=O)CC#N	inconclusive: 0.708 µM [activator, single point]
COc1ccc(N2CCC(CNC(=S)Nc3c(C)cccc3C)C2)cc1 (stereo not drawn)	inconclusive: 11.2 µM [inhibitor, partial curve, poor fit]
CC(C)COC(=O)c1ccc2[nH]c(O)c(C=Nc3ccc(S(N)(=O)=O)cc3)c2c1	active: 0.996 µM
COc1ccc(CCNc2ncnc3c2nnn3C)cc1	inconclusive: 25.1 µM [inhibitor, single point]
COc1ccc(-c2csc(NC(=O)C3=NN(c4ccccc4)C(=O)CC3)n2)cc1	inconclusive: 11.2 µM [inhibitor, partial curve, poor fit]
COC(=O)c1sc2cccc(F)c2c1S(=O)(=O)N1CCN(c2cccc(C)c2)C(C)C1 (stereo not drawn)	inconclusive: 8.91 µM [inhibitor, partial curve, poor fit]
COC(=O)c1ccc(NC(=O)CC2C(=O)N(c3cccc(OC)c3)C(=O)N2C(C)C)cc1 (stereo not drawn)	inconclusive: 25.1 µM [inhibitor, partial curve, poor fit]
O=C1C(=O)c2ccccc2C(O)=C1c1cccc([N+](=O)[O-])c1	active: 3.55 µM

Source: PubChem BioAssay AID540256 (National Center for Advancing Translational Sciences (NCATS), 2011)
